{"sequences": {"note": "Sequences of proteins named here, by UniProt entry; tags and fusion partners are left off.", "UniProt P51531, whole entry": "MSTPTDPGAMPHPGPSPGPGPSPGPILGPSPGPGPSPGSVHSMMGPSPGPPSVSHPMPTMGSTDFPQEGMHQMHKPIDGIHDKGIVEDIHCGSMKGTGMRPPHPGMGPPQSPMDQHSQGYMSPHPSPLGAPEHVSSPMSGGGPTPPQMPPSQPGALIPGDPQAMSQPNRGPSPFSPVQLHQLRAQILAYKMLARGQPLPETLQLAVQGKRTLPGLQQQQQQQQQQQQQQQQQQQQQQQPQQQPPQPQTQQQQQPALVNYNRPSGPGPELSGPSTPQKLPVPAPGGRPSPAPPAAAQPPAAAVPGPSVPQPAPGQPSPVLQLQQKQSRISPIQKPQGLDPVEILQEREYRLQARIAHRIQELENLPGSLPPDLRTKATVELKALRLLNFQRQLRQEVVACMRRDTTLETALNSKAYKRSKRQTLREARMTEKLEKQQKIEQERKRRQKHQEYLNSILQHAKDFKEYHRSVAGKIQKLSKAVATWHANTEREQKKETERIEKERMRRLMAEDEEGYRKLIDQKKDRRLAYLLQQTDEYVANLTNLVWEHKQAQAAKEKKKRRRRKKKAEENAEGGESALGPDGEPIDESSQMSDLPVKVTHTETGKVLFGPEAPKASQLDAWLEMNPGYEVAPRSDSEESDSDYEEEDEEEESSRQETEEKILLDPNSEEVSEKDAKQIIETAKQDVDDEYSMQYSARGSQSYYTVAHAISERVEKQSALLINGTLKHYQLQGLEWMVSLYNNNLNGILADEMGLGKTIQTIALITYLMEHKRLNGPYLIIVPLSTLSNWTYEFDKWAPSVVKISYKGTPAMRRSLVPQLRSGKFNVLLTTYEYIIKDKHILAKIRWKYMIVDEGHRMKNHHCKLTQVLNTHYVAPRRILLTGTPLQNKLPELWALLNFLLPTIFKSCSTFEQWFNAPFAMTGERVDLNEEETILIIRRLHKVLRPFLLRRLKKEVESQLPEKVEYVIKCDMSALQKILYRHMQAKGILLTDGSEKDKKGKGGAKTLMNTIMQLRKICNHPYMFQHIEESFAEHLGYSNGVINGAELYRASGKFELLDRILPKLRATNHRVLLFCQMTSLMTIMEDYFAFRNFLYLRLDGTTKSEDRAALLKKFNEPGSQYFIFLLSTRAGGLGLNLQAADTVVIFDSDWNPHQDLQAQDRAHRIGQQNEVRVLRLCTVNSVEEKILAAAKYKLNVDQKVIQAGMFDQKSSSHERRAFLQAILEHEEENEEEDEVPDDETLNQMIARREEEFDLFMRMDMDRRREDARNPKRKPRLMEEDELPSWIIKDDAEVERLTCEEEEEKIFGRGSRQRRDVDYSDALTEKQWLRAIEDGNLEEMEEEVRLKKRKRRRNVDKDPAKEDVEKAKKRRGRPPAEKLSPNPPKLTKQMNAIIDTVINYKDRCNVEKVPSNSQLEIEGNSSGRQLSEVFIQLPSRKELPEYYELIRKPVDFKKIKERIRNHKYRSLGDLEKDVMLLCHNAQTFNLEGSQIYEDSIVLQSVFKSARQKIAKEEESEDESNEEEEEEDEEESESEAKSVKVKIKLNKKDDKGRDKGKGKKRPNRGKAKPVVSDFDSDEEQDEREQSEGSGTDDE"}, "source": "paper PMC9551036", "about": "“A selective and orally bioavailable VHL-recruiting PROTAC achieves SMARCA2 degradation in vivo” (Nature Communications, 2022)", "target": "SMARCA2 (Homo sapiens, UniProt P51531)", "assay": "SMARCA2 capillary electrophoresis protein assay in RKO cells", "assay_type": "cell-based", "parameters": "endogenous in cells; host or cells: RKO, NCI-H1568, A549, HCT116, LU99, HCC-364, HCT-15, HCC4006, SK-N-AS", "experimental": "130,000–200,000 cells were seeded in 24-well plates and incubated until settled down or overnight. Compounds were dissolved in DMSO and added to cells in indicated concentrations using a digital dispenser following an optional media change. […] For SMARCA2/4 half-life determination, 150,000 or 200,000 cells were seeded in 24-well plates. […] For SMARCA2/4 re-synthesis measurements, 200,000 cells were seeded in 24-well plates. […] Medium was removed, cells were washed with PBS and lysed with 80 µl Lysis Buffer (MSD Tris Lysis Buffer (#R60TX-2) + Halt Inhibitor Cocktail (100x) + Benzonase 0.5 µL/ml). Samples were frozen at −80 °C and thawed at room temperature before use. Samples were transferred to a V-bottom plate and insoluble debris was pelleted by centrifugation for 5 min at maximum speed. The supernatant was transferred to a fresh plate. Master Mix and Ladder were prepared according to manufacturer’s instructions for 12–230 kDa Wes Separation Module, 8 × 25 capillary cartridges, Protein Simple #SM-W004 with Anti-Rabbit Detection Module for Wes, Peggy Sue or Sally Sue, Protein Simple #DM-001. 4.8 µl lysate were mixed with 1.2 µl Master Mix to achieve a protein concentration of ~0.5 µg/µl. […] Wes plates were prepared and run according to manufacturer’s instructions. Proteins were quantified with accompanying Compass Software. SMARCA2/4 protein levels were normalised to GAPDH. […] Where applicable, curves were fitted using a 4-parametric logistic model.", "note": "Values joined by “and” are separate entries in the source; they are usually repeats but may differ in a detail not shown here. Equal entries are not always repeated. Further values from the same series stand in other lists."}
{"smiles": "Cc1ncsc1-c1ccc(C(CCC(C)CCN2CCC(c3ccc4c(c3)n(C3CCCC3)c3nc(=O)c5c(Br)cccc5n43)CC2)NC(=O)C2CC(O)CN2C(=O)C(NC(=O)C2(F)CC2)C(C)(C)C)cc1", "note": "(stereo not shown) [ACBI2]", "values": [{"measurement": "% protein remaining", "setting": "SM2, conc 9.54e-12 mol/l", "result": "151.94% and 131.079%"}, {"measurement": "% protein remaining", "setting": "SM2, conc 3.81e-11 mol/l", "result": "163.034% and 152.159%"}, {"measurement": "% protein remaining", "setting": "SM2, conc 1.53e-10 mol/l", "result": "191.351% and 159.697%"}, {"measurement": "% protein remaining", "setting": "SM2, conc 6.1e-10 mol/l", "result": "151.794% and 119.537%"}, {"measurement": "% protein remaining", "setting": "SM2, conc 2.44e-9 mol/l", "result": "111.743% and 88.6031%"}, {"measurement": "% protein remaining", "setting": "SM2, conc 9.77e-9 mol/l", "result": "64.9972% and 67.4221%"}, {"measurement": "% protein remaining", "setting": "SM2, conc 3.91e-8 mol/l", "result": "39.7588% and 46.4282%"}, {"measurement": "% protein remaining", "setting": "SM2, conc 1.56e-7 mol/l", "result": "20.2631% and 20.7399%"}, {"measurement": "% protein remaining", "setting": "SM2, conc 6.25e-7 mol/l", "result": "22.8931% and 23.7185%"}, {"measurement": "% protein remaining", "setting": "SM2, conc 2.5e-6 mol/l", "result": "18.9321% and 23.8685%"}]}
